The values that follow come from article PMC9816108.

These are yes or no findings as the source states them, for the method shown. In cells and extracts the contact can be indirect. Here binding means that the protein was enriched with, or labelled near, the bait; the list need not be complete. For some of these results: No binding means not detected with the bait. For some of these results: Tags and fused reporters may be left off the sequences shown.

In test [1] the target is T1, GABAA receptor α2 subunit modified with pHluorin and 9E10 (myc) epitope on its N-terminus (mouse (knock-in, forebrain)), P26048.
T1 chain: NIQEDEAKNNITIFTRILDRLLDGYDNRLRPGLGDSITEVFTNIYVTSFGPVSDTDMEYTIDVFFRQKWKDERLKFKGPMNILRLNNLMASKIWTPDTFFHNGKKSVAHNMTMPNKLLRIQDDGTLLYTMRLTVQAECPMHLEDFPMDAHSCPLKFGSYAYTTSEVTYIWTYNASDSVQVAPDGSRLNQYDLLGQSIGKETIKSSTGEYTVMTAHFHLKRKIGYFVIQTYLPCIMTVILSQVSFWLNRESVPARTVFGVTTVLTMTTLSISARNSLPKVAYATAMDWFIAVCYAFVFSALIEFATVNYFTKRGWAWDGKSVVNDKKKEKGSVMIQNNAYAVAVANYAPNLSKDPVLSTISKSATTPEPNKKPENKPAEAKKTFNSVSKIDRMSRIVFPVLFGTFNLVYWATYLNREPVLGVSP
Put plainly: affinity purification with mass spectrometry; mouse forebrain plasma membranes solubilised in 0.5% Triton; α1 receptors with immobilised α1 monoclonal antibody from wild type tissue, α2 receptors with anti-9E10 (myc) beads from pHα2 tissue; soft elution, BN-PAGE, 250 kDa band excised, LC-MS/MS against control purifications. The settings on record: remark: other sources report otherwise.

Test [2] concerns the target T2, GABAA receptor α1 subunit (mouse (endogenous in forebrain)), P62812.
T2 chain: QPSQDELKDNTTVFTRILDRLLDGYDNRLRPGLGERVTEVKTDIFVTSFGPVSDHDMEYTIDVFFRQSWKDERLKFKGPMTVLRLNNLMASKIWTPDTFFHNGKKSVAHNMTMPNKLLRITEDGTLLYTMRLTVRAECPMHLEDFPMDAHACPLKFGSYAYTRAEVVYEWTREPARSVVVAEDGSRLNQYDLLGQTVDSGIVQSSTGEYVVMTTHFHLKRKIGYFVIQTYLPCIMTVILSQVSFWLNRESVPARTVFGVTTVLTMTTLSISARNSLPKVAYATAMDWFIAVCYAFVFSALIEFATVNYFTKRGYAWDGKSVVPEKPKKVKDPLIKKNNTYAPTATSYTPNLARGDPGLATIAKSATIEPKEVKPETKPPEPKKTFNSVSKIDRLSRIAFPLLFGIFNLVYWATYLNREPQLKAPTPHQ
The experiment in a line: affinity purification with mass spectrometry; α1 and α2 (pHα2) receptors immunopurified from mouse forebrain plasma membrane fractions, BN-PAGE, 720 kDa species excised, label-free LC-MS/MS; only proteins significantly enriched over control (non-immune IgG, or anti-9E10 in wild type tissue). The settings on record: remark: other sources report otherwise.

In test [3] the target is GABAA receptor α1 subunit (mouse (endogenous in forebrain)) (UniProt P62812). The test is described as above.
The target in test [4] is T2, GABAA receptor α1 subunit (mouse …). Put plainly: affinity purification with mass spectrometry; mouse forebrain plasma membranes solubilised in 0.5% Triton; α1 receptors with immobilised α1 monoclonal antibody from wild type tissue, α2 receptors with anti-9E10 (myc) beads from pHα2 tissue; soft elution, BN-PAGE, 250 kDa band excised, LC-MS/MS against control purifications. The settings on record: remark: other sources report otherwise.

B1: GABAA receptor α5 subunit, Q8BHJ7 26-463 (receptor)
chain: SHFGFSQMPTSSVQDETNDNITIFTRILDGLLDGYDNRLRPGLGERITQVRTDIYVTSFGPVSDTEMEYTIDVFFRQSWKDERLRFKGPMQRLPLNNLLASKIWTPDTFFHNGKKSIAHNMTTPNKLLRLEDDGTLLYTMRLTISAECPMQLEDFPMDAHACPLKFGSYAYPNSEVVYVWTNGSTKSVVVAEDGSRLNQYHLMGQTVGTENISTSTGEYTIMTAHFHLKRKIGYFVIQTYLPCIMTVILSQVSFWLNRESVPARTVFGVTTVLTMTTLSISARNSLPKVAYATAMDWFIAVCYAFVFSALIEFATVNYFTKRGWAWDGKKALEAAKIKKKERELILNKSTNAFTTGKLTHPPNIPKEQPPAGTANAPTVSIKASEEKTAESKKTYNSISKIDKMSRIVFPILFGTFNLVYWATYLNREPVIKGATSPK
On to B1, for which, in test [1], the binding result is given as “no binding”.

B2: gephyrin, Q8BUV3 1-769 (protein)
chain: MATEGMILTNHDHQIRVGVLTVSDSCFRNLAEDRSGINLKDLVQDPSLLGGTISAYKIVPDEIEEIKETLIDWCDEKELNLILTTGGTGFAPRDVTPEATKEVIEREAPGMALAMLMGSLNVTPLGMLSRPVCGIRGKTLIINLPGSKKGSQECFQFILPALPHAIDLLRDAIVKVKEVHDELEDLPSPPPPLSPPPTTSPHKQTEDKGVQCEEEEEEKKDSGVASTEDSSSSHITAAALAAKIPDSIISRGVQVLPRDTASLSTTPSESPRAQATSRLSTASCPTPKQIRRPDESKGVASRVGSLKARLPSCSSTYSVSEVQSRCSSKENILRASHSAVDITKVARRHRMSPFPLTSMDKAFITVLEMTPVLGTEIINYRDGMGRVLAQDVYAKDNLPPFPASVKDGYAVRAADGPGDRFIIGESQAGEQPTQTVMPGQVMRVTTGAPIPCGADAVVQVEDTELIRESDDGTEELEVRILVQARPGQDIRPIGHDIKRGECVLAKGTHMGPSEIGLLATVGVTEVEVNKFPVVAVMSTGNELLNPEDDLLPGKIRDSNRSTLLATIQEHGYPTINLGIVGDNPDDLLNALNEGISRADVIITSGGVSMGEKDYLKQVLDIDLHAQIHFGRVFMKPGLPTTFATLDIDGVRKIIFALPGNPVSAVVTCNLFVVPALRKMQGILDPRPTIIKARLSCDVKLDPRPEYHRCILTWHHQEPLPWAQSTGNQMSSRLMSMRSANGLLMLPPKTEQYVELHKGEVVDVMVIGRL
For the molecule B2, in test [2], the binding entry was “binds”.

B3: Ina (protein, UniProt P46660 1-501)
chain: MSFGSEHYLCSASSYRKVFGDSSRLSARLSGPGGSGSFRSQSLSRSNVASTAACSSASSLGLGLAYRRLPASDGLDLSQAAARTNEYKIIRTNEKEQLQGLNDRFAVFIEKVHQLETQNRALEAELAALRQRHAEPSRVGELFQRELRELRAQLEEASSARAQALLERDGLAEEVQRLRARCEEESRGREGAERALKAQQRDVDGATLARLDLEKKVESLLDELAFVRQVHDEEVAELLATLQASSQAAAEVDVAVAKPDLTSALREIRAQYESLAAKNLQSAEEWYKSKFANLNEQAARSTEAIRASREEIHEYRRQLQARTIEIEGLRGANESLERQILELEERHSAEVAGYQDSIGQLESDLRNTKSEMARHLREYQDLLNVKMALDIEIAAYRKLLEGEETRFSTGGLSISGLNPLPNPSYLLPPRILSSTASKVSSAGLSLKKEEEEEEEEASKEVSKKTSKVGEGFEETLGEAVISTKKTGKSATEESTSSSQKM
With B3, the binding result in test [3] is “binds”.

B4: GABAA receptor α4 subunit, Q9D6F4 36-552 (receptor)
chain: QNSKDEKLCPENFTRILDSLLDGYDNRLRPGFGGPVTEVKTDIYVTSFGPVSDVEMEYTMDVFFRQTWIDKRLKYDGPIEILRLNNMMVTKVWTPDTFFRNGKKSVSHNMTAPNKLFRIMRNGTILYTMRLTISAECPMRLVDFPMDGHACPLKFGSYAYPKSEMIYTWTKGPEKSVEVPKESSSLVQYDLIGQTVSSETIKSITGEYIVMTVYFHLRRKMGYFMIQTYIPCIMTVILSQVSFWINKESVPARTVFGITTVLTMTTLSISARHSLPKVSYATAMDWFIAVCFAFVFSALIEFAAVNYFTNIQMQKAKKKISKPPPEVPAAPVLKEKHTETSLQNTHANLNMRKRTNALVHSESDVKSRTEVGNHSSKTSAVQESSEATPKAHLASSPNPFSRANAAETMSAAARGLSSAASPSPHGTLRPASLGSASTRPAFGSRLGRIKTTVNTTGAAGNVSATPPPPAPPPSGSGTSKIDKYARILFPVTFGAFNMVYWVVYLSKDTMEKSESLM
For B4, the binding entry in test [4] is “no binding”.
